These are yes or no findings as the source states them, for the method shown.

For the test, the target named is T1, S-adenosyl-L-homocysteine hydrolase 2 (SAHH2), Arabidopsis thaliana (Arabidopsis thaliana (endogenous in leaves)) (UniProt Q9LK36).
T1 sequence: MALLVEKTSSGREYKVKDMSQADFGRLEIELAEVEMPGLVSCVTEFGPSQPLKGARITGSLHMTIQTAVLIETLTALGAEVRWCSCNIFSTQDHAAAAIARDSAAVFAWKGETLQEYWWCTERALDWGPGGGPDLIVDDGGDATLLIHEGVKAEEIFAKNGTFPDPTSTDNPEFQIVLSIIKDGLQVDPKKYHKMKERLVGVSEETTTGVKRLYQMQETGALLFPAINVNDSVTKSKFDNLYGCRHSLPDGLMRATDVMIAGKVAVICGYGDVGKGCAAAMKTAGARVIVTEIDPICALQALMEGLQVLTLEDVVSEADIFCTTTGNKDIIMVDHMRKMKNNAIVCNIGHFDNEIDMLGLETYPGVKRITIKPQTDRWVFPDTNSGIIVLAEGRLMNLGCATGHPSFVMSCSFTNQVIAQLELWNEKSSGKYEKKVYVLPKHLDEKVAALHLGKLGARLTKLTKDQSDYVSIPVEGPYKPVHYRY
The experiment in a line: native gel or EMSA; 2D Clear Native PAGE of A. thaliana leaf extract, immunoblots with anti-SAHH and anti-ADK antibodies. A general note: Mobility shift assays separate free from complexed probe on a gel.

On to “ADENOSINE KINASE (ADK), Arabidopsis thaliana (enzyme)”, for which the binding entry is on record as “no binding”.

Values taken from article PMC7367456.
